# The other results are listed elsewhere or left out. Further columns of the screen follow, without active or inactive calls. Compounds called inactive in the main read-out are mostly missing here.
# Experiment: hepatocyte lipid droplet accumulation inhibitors, confirmation, imaging, AML12 mouse hepatocytes, single concentration, high-content (AID 463183);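 also: cells counted after overnight compound exposure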
# Conditions: BODIPY lipid droplet imaging, measured here: cell count, cytotoxicity, at 5.2 µM, droplets induced with 100 µM oleic acid
row,Structure (SMILES),cell count [cells]
1,CCn1c(=O)c2cc(C(=O)NCCC(C)C)sc2c2ccccc21,1680
2,CCOc1cc2c(cc1OCC)C(c1ccc(OC)cc1)N(c1ccccc1)C(=O)C2 (stereo not drawn),1630
3,Cc1cccc(NC(=O)CSc2nc3ccccc3nc2N2CCCC2)c1C,1670
4,CCOC(=O)c1cc(CC)sc1NC(=O)C1CC(=O)NN1Cc1ccccc1 (stereo not drawn),1690
5,c1ccc2nc(N3CCN(Cc4ccc5c(c4)OCO5)CC3)cnc2c1,1500
6,COc1ccc(OC)c(/C=C/C(=O)N(C)CC(=O)Nc2cc(C)ccc2C)c1,1590
7,CCOC(=O)CSc1c(-c2cccs2)[nH]c2ccccc12,1640
8,CCc1ccc(OCc2ccc(C(=O)O)o2)cc1,1560
9,CCOC(=O)C1=C(C)NC(=O)NC1/C=C/c1ccccc1 (stereo not drawn),1550
10,Cc1nn(Cc2ccc(F)cc2)c(C)c1NC(=O)C1c2ccccc2Oc2ccccc21,1550
11,CCn1cc([N+](=O)[O-])c(C(=O)N2N=C(c3ccc4ccccc4c3)CC2c2ccccc2O)n1 (stereo not drawn),1610
12,Cc1ccc(-c2c(C)nn3c(N4CCOCC4)cc(C)nc23)cc1,1660
13,COc1ccccc1Nc1nnc(SCC(=O)Nc2nc(-c3ccc(F)cc3)cs2)s1,1570
14,COc1ccccc1NC(=O)C1CCN(C(=O)NCc2ccccc2)CC1,1650
15,CC(Sc1nc(NCc2ccccc2)nc(N2CCOCC2)n1)C(=O)Nc1ccccc1 (stereo not drawn),1540
16,O=C(Nc1ccc(NC(=O)c2cc3ccccc3o2)cc1)c1ccco1,1550
17,COc1ccc(C(=O)OCC(=O)NC(C)CCc2ccccc2)cc1OC (stereo not drawn),1580
18,CCOc1ccc(CCNC(=O)Cn2nc(C)n3cccc3c2=O)cc1OCC,1560

# A draw from above in order of SMILES length, smallest number first.
row,Structure (SMILES),cell count [cells]
17,COc1ccc(C(=O)OCC(=O)NC(C)CCc2ccccc2)cc1OC (stereo not drawn),1580
18,CCOc1ccc(CCNC(=O)Cn2nc(C)n3cccc3c2=O)cc1OCC,1560
10,Cc1nn(Cc2ccc(F)cc2)c(C)c1NC(=O)C1c2ccccc2Oc2ccccc21,1550
